According to article PMC7819943, “Rice protein-binding microarrays: a tool to detect cis-acting elements near promoter regions in rice”:
Some of the results follow.

The chains behind the UniProt entries cited, without tags or fusion partners.
UniProt Q0JBA9, entry or part of it: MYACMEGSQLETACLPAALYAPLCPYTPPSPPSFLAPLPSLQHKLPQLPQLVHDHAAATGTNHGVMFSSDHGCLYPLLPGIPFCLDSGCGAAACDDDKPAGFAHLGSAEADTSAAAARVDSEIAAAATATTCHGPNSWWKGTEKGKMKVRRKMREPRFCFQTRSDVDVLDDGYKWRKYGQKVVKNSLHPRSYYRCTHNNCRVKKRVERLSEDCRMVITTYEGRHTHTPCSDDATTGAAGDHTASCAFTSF

The sequences below were run against OsWRKY34 (Oryza sativa, UniProt Q0JBA9 1-250) (assay: protein-binding microarray (RPBM); PBS, 2% BSA, 51.3 ng/ul salmon testes DNA, 50 uM zinc acetate, 200 nM TF, 25 C, 1 h; high values mean tight binding). Conditions: protein: recombinant; tags: N-terminal polyhistidine and DsRed monomer fusion (pET32a); label: CyDye5-dUTP incorporated in the synthesized complementary strand; 3' TTTTT single-stranded linker to array surface; dsDNA, one strand shown.
Procedure, shortened: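 A custom Agilent array was converted to double-stranded form by primer extension with Cy5-dUTP and blocked with 2% BSA. Protein at 200 nM in PBS with 2% BSA, salmon testes DNA and 50 µM zinc acetate was applied for 1 h at 25 °C, followed by washing. The proteins were polyhistidine–DsRed N-terminal fusions of transcription factors, expressed in E. coli BL21-CodonPlus and Ni–NTA-purified. The binding signal is per-feature fluorescence intensity (arbitrary units) from an Axon 4000B scanner.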

Sequence	binding signal
CTCTCCGTGCATCTATATAAACTGGCCCTGATCAATCTCACGGAGTCACCTAGTGCAG	9650 fluorescence intensity (a.u.)
CCACCCGCTCATCTATATAAACCCGCCCCGGCCGGCCACCCGGAGTCACCTAGTGCAG	9920 fluorescence intensity (a.u.)
AATTCGTCCTCGACTCGTCTTCGTCTTCGCCTCGTCGTCCCGGAGTCACCTAGTGCAG	12700 fluorescence intensity (a.u.)
TCTCAATGTGTAGGTTGAATTTCAATTTGATTTTGATTTTCGGAGTCACCTAGTGCAG	9250 fluorescence intensity (a.u.)
CCGTATCATAATCACGTCCTGCCACCCTTTTAACTAATCACGGAGTCACCTAGTGCAG	10500 fluorescence intensity (a.u.)
CTTCATTTCCATGTCCTGTTTGTACTAGGTTATTGGAATCCGGAGTCACCTAGTGCAG	8430 fluorescence intensity (a.u.)
TTGGGGTTCGTGGGGTCGAGAGGAAGGTGCGTGATCATACCGGAGTCACCTAGTGCAG	11500 fluorescence intensity (a.u.)
TCTCTCTCACTCTTCCGGTCTTCCCTGGGCAGGCTAGCCGCGGAGTCACCTAGTGCAG	8840 fluorescence intensity (a.u.)
CGTTTCTCATTAGTATGCCATATTAAAACTGTTATCCATTCGGAGTCACCTAGTGCAG	8310 fluorescence intensity (a.u.)
GGCTGCGCGCGACTCGCGGTCGACGAGGGTGGGGCCGCCGCGGAGTCACCTAGTGCAG	8220 fluorescence intensity (a.u.)
AATTTTTATTCCTGTTTCCGTCGTGGCCCATCTGTGATGACGGAGTCACCTAGTGCAG	8350 fluorescence intensity (a.u.)
GCTAGATTCATTCCGCGAGGAGGTGCAGGGTTGTTTTCTGCGGAGTCACCTAGTGCAG	9650 fluorescence intensity (a.u.)
CTACGGGCCTGCCTCATCCAGCCATCCTTGTCTCAACTACCGGAGTCACCTAGTGCAG	10500 fluorescence intensity (a.u.)
ATTGTTGTCATGTGTTGAAATATTATCATATATTAATATTCGGAGTCACCTAGTGCAG	8540 fluorescence intensity (a.u.)
TTGTGTGGTGTGGTTGAGCTGAGGTGTAGTTAGGACAGTGCGGAGTCACCTAGTGCAG	8320 fluorescence intensity (a.u.)
ACACCATTGACTTTTTAGCATATGTTTAACCGTTTGTCTTCGGAGTCACCTAGTGCAG	13900 fluorescence intensity (a.u.)
TAGATCGCACACCGCCAATTCGTCATGTTTGACGTACAACCGGAGTCACCTAGTGCAG	8680 fluorescence intensity (a.u.)
CAACAACAACACACAGCAACAGGCCTACCATATCGCGAGACGGAGTCACCTAGTGCAG	8590 fluorescence intensity (a.u.)
TCCAGTTTATTCAGGGCTTGCCACACGTCCATCCAGTATCCGGAGTCACCTAGTGCAG	9740 fluorescence intensity (a.u.)
CCTTATTTCTTGCTCCTGACTCAATCGCCTCCACCGACCACGGAGTCACCTAGTGCAG	8550 fluorescence intensity (a.u.)
GCCACGGGCAGAATTAGCGCGGCGCGGGCGGGGTGGTTAGCGGAGTCACCTAGTGCAG	9400 fluorescence intensity (a.u.)

Some of the entries above, set out differently.
Sequence | binding signal
CTCTCCGTGCATCTATATAAACTGGCCCTGATCAATCTCACGGAGTCACCTAGTGCAG | 9650 fluorescence intensity (a.u.)
TTGTGTGGTGTGGTTGAGCTGAGGTGTAGTTAGGACAGTGCGGAGTCACCTAGTGCAG | 8320 fluorescence intensity (a.u.)

Going on with the list.

Sequence	binding signal
CATATCTGCATGCGTTGTTTGACCTGCCTACATATATTTACGGAGTCACCTAGTGCAG	8930 fluorescence intensity (a.u.)
TAATTCCCAACTCCTTCCGCCTCGTTTTTCATGCGCACGCCGGAGTCACCTAGTGCAG	8510 fluorescence intensity (a.u.)
CCGCCACACCGGCTCCACCTACCCACCCACGTAATCACGTCGGAGTCACCTAGTGCAG	8310 fluorescence intensity (a.u.)
GGGTGGGGAAATTTCGTCGTCGCGATGGGCCGGGGCCCACCGGAGTCACCTAGTGCAG	11900 fluorescence intensity (a.u.)
TCGTCGCCCTATTCCTCTTACTCTTCTCCATGGCCATCAACGGAGTCACCTAGTGCAG	10100 fluorescence intensity (a.u.)
ACATTATGTTTCGATTTTTTATCGCAGGTTTGGAATTCTGCGGAGTCACCTAGTGCAG	8440 fluorescence intensity (a.u.)
GTCTATTGTTTTTCACGTGCACGTTTCCAAACGACTAAAACGGAGTCACCTAGTGCAG	8140 fluorescence intensity (a.u.)
TGCCGCGTCCGAGTCCAAAGCCAAACTGTCATCCATCCGCCGGAGTCACCTAGTGCAG	8190 fluorescence intensity (a.u.)
CCTCGGCCTCGAATTTCGTCTCCTCGCCCGCCGCTTGCGCCGGAGTCACCTAGTGCAG	13000 fluorescence intensity (a.u.)
ATATATATATATATATATATATATATATATACAGTTCACACGGAGTCACCTAGTGCAG	8620 fluorescence intensity (a.u.)
GCTATCTTTTCACTCATATCTATACTTATGCTTATAAAATCGGAGTCACCTAGTGCAG	9090 fluorescence intensity (a.u.)
CCTGTGCCGTGCCAGGCTGCCCGTTACTGATAAACTTCGACGGAGTCACCTAGTGCAG	8040 fluorescence intensity (a.u.)
TTAGGTCGGAGTGAGTTTTGATTGTACTACTCCATGTTTACGGAGTCACCTAGTGCAG	9330 fluorescence intensity (a.u.)
CTCATTGACATTTTCAGTTGGTAATCAGTACACTTGTTCCCGGAGTCACCTAGTGCAG	9990 fluorescence intensity (a.u.)
GATGAACTTATTCCTTTTCTTTTCTCGTGAGGCCTAGCAACGGAGTCACCTAGTGCAG	10100 fluorescence intensity (a.u.)
CCTAGTTTCCTTCTCTTTCCTCATTTATCACTTGCTACATCGGAGTCACCTAGTGCAG	10900 fluorescence intensity (a.u.)
TTTGCGTCCTGCAGCTCTCTCTCATCACAGTTTCGCAATGCGGAGTCACCTAGTGCAG	9860 fluorescence intensity (a.u.)
CAACCCTTCTTGCCTTAATCTACACTCTCATTATATTTAACGGAGTCACCTAGTGCAG	8740 fluorescence intensity (a.u.)
TACAATCATTGTTCTCCTCAGACTCGCCGCCAACCAATTTCGGAGTCACCTAGTGCAG	9630 fluorescence intensity (a.u.)
ACCTTGCCCTGGGACTGCACCTTCACCTTCTCCTTCTCCACGGAGTCACCTAGTGCAG	8040 fluorescence intensity (a.u.)
AATAGTTGTCTCTTCATATTTACTGCAACACTCATATTAACGGAGTCACCTAGTGCAG	8200 fluorescence intensity (a.u.)

Sequence	binding signal
AAACCTTTTGTGCGTGCATCTCGTCTGGCATTTGTCTCTCCGGAGTCACCTAGTGCAG	8200 fluorescence intensity (a.u.)
CTCATCATTCCTAACCATTTTCTCAGCCACCCATCTATCTCGGAGTCACCTAGTGCAG	9040 fluorescence intensity (a.u.)
TTTGTTTTGTTATTACACTAGTTTAATACTCGCTCCATACCGGAGTCACCTAGTGCAG	8860 fluorescence intensity (a.u.)
CCTCCTAGGCTACACCTCACCCTCCCTCTCTGATACACATCGGAGTCACCTAGTGCAG	8550 fluorescence intensity (a.u.)
GCCTGTCTTGAACATTTCCTTGTTCTCCGTCCTTGAGCACCGGAGTCACCTAGTGCAG	10700 fluorescence intensity (a.u.)
GCCACGTGGCACCCGCCCATTGCTCGTCCACCTCACATCTCGGAGTCACCTAGTGCAG	8030 fluorescence intensity (a.u.)
AACTCTCGGCCTTAGCTCCTACCGTCACTCCCACGTGTGCCGGAGTCACCTAGTGCAG	8450 fluorescence intensity (a.u.)
TTTGCTTTTGTTTCCAAGTCTGTTTCCTGTAATCTCATTGCGGAGTCACCTAGTGCAG	9930 fluorescence intensity (a.u.)
ACACGACCAACCCTGCATCCATTGGCTCCAACCTAGACCTCGGAGTCACCTAGTGCAG	8610 fluorescence intensity (a.u.)
TTTCTGCGCTACGTGCTCGCCATGTCGTCCTCGTCACAAACGGAGTCACCTAGTGCAG	9300 fluorescence intensity (a.u.)
GTCCGATCACTCGATCATTCGTTGACTTTAACCGTGCTGTCGGAGTCACCTAGTGCAG	15500 fluorescence intensity (a.u.)
CTTATTTTCTTTTCTAATTTTAGATTTTATTTTATTATTACGGAGTCACCTAGTGCAG	8360 fluorescence intensity (a.u.)
TAGCCATCGACCACATGAACGAGCTTCACACACATATATTCGGAGTCACCTAGTGCAG	10700 fluorescence intensity (a.u.)
CGATTTGGGAGCAACGTTGACGATCCGACTACAACCTTACCGGAGTCACCTAGTGCAG	8320 fluorescence intensity (a.u.)
ATATTTGCAGTACATATTGTGACATACGACCTCCGTCCTACGGAGTCACCTAGTGCAG	8690 fluorescence intensity (a.u.)
TACCCGTGTTCTGTTTTAGTGAAGGATACGAAACATTTTTCGGAGTCACCTAGTGCAG	8280 fluorescence intensity (a.u.)
ACCAAGAACTCTCTTCTTTTCTGTCACTTCTCTTCCATTCCGGAGTCACCTAGTGCAG	11000 fluorescence intensity (a.u.)
TGATACGTCACATACCTACCTACATCTACATCTGGTTAGCCGGAGTCACCTAGTGCAG	8950 fluorescence intensity (a.u.)
CCGCTCGACCATCCGCGCTCTTTACCTGCTATTAATTCGCCGGAGTCACCTAGTGCAG	9080 fluorescence intensity (a.u.)
GGGGTTATTTTAGTCCATTGAAGTGGGAAAAATGGTGAAACGGAGTCACCTAGTGCAG	8660 fluorescence intensity (a.u.)
CTCCTGCTGACGCGCCCCGTCGCCGCCGCTCGCTTGCCGCCGGAGTCACCTAGTGCAG	8810 fluorescence intensity (a.u.)

Sequence	binding signal
ATTTACTCATATATTTTTATAATGTATTTGTCTTATGTTACGGAGTCACCTAGTGCAG	8450 fluorescence intensity (a.u.)
GCTCTGTGCCTCATCAAGCTCTATCCAAGCTCTCGCCATGCGGAGTCACCTAGTGCAG	8210 fluorescence intensity (a.u.)
TTCTGAAATGTTTGCTCGATCAACGTCTGCTGCACGGCTTCGGAGTCACCTAGTGCAG	8910 fluorescence intensity (a.u.)
ATCTTTCTATTGTTTGTTCAGTATAGCCAATATGTATAACCGGAGTCACCTAGTGCAG	8710 fluorescence intensity (a.u.)
CCAACGAACCAGTTTTTTTTCTCGTTTCGATCTCCCGTCCCGGAGTCACCTAGTGCAG	8090 fluorescence intensity (a.u.)
GGCTCTTTGCATGCATGTCAACATTTTTCTCCAACTATTACGGAGTCACCTAGTGCAG	10400 fluorescence intensity (a.u.)
CCCAGTCCCAGTGGACTATATCGCGCGTTTTTTGGCGGGGCGGAGTCACCTAGTGCAG	10700 fluorescence intensity (a.u.)
GGCATCTTCTCACACTCTAGCTCACAGCTTCGCGGTTTCCCGGAGTCACCTAGTGCAG	8260 fluorescence intensity (a.u.)
TTCCTCATCCTCTCACCGCCGCCGCCGCCGCGAGCGATTTCGGAGTCACCTAGTGCAG	8320 fluorescence intensity (a.u.)
TTACTGTTGACTTGCAGTTCTGGGCACTTTGTATTTAGTTCGGAGTCACCTAGTGCAG	10000 fluorescence intensity (a.u.)
TGGCGAGCACACCACCACCGCATCACCGGTCCACCGCTCTCGGAGTCACCTAGTGCAG	8100 fluorescence intensity (a.u.)
AGCCTCACTTCTTGTTGCTTTCAAGCTGTTTACTTACGCTCGGAGTCACCTAGTGCAG	10700 fluorescence intensity (a.u.)
AATGCCCGAACACTCCATGCGACACCCTATGTAATAACCGCGGAGTCACCTAGTGCAG	8350 fluorescence intensity (a.u.)
AGATTAGTAGTAAAAGGGTAGGGTATTAGTGGCGTGATTACGGAGTCACCTAGTGCAG	8570 fluorescence intensity (a.u.)
CGCCGCCTGCACCACCCTACCGGCCACTTCCACTGCCAATCGGAGTCACCTAGTGCAG	8440 fluorescence intensity (a.u.)
CCGCCGCTGAGACGTTTTATTCATCGCTGCCATCAACCAACGGAGTCACCTAGTGCAG	8140 fluorescence intensity (a.u.)
GTGTTTGGTTGCGTGCCGCAATTGAGTCAATCCACACTTTCGGAGTCACCTAGTGCAG	8420 fluorescence intensity (a.u.)
ATATTATAGTGAGGGGTGGGAGGAACCTGTTCCCGCTGCTCGGAGTCACCTAGTGCAG	11700 fluorescence intensity (a.u.)
TTCACATCTACACTTTCTTTATGTTGGTTATTTATACTATCGGAGTCACCTAGTGCAG	11800 fluorescence intensity (a.u.)
AGGCGGCGCATGGCGCGGCGCGGCGTGGGGTGGGGTGGGGCGGAGTCACCTAGTGCAG	14400 fluorescence intensity (a.u.)
GCCGCATCCCGCCGCCGCCGCCTCTGACCCCGCGCGGCGGCGGAGTCACCTAGTGCAG	8770 fluorescence intensity (a.u.)

Random excerpt: two entries already listed, in no set order.
Sequence	binding signal
GGCATCTTCTCACACTCTAGCTCACAGCTTCGCGGTTTCCCGGAGTCACCTAGTGCAG	8260 fluorescence intensity (a.u.)
TTCCTCATCCTCTCACCGCCGCCGCCGCCGCGAGCGATTTCGGAGTCACCTAGTGCAG	8320 fluorescence intensity (a.u.)
